Screening data, single-dose tests

By UniProt entry, the sequences of proteins in these tests, tags left out. Residues count along the entry.
UniProt Q8IDJ8, 1-583: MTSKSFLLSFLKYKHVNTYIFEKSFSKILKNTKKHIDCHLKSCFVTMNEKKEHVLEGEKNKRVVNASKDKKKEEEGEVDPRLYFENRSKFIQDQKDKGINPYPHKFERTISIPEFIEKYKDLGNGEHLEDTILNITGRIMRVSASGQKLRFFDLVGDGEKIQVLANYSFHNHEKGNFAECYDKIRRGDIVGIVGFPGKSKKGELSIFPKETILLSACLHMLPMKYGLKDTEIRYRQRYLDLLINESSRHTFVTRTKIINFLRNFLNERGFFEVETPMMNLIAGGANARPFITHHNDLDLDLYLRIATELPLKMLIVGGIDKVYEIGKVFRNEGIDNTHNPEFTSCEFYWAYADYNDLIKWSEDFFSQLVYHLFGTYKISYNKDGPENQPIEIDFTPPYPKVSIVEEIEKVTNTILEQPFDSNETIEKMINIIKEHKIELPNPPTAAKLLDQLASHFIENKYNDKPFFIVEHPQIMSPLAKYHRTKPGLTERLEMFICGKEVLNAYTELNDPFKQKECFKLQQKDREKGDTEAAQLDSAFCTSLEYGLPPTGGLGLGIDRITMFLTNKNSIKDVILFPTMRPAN
UniProt P9WPC5, whole entry: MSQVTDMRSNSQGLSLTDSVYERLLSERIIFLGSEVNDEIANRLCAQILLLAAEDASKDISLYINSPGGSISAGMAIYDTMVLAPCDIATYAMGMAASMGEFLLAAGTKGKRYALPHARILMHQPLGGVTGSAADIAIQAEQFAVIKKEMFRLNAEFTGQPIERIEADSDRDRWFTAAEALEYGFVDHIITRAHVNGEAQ
UniProt P9WPC3, whole entry partner: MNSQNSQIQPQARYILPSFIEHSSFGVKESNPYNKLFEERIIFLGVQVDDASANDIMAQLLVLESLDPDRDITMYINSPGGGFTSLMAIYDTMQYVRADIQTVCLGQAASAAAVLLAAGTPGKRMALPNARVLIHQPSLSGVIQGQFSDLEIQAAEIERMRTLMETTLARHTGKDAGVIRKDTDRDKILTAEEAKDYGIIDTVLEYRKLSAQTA

The values are deposited in ChEMBL (CHEMBL3988442, “University of Dundee, Small-Polar-MMV Screening Library” (2021)).

PfKRS1: 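Lysine-tRNA ligase, Plasmodium falciparum 3D7 (UniProt Q8IDJ8). Enzyme assay of the cytosolic lysyl-tRNA synthetase in 384-well plates, read by luminescence. Tested at 30 µM. Higher reads as stronger inhibition, judged from the few compounds that gave an IC50. Of about 69,000 compounds tested this way, about 49 (0.071%) reached 50% or more in at least one test.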
ClpP1P2: 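ClpP1P2, Mycobacterium tuberculosis (UniProt P9WPC5 and UniProt P9WPC3). Protease assay of ClpP1P2, read by the AMC dye that it sets free. Tested at 50 µM. Higher reads as stronger inhibition, judged from the few compounds that gave an IC50. Most other retested compounds had strongly negative values. Size under these conditions: about 69,000 compounds, about 10 of them at 50% or above in at least one test.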

Each number is a percent effect as filed.
The record does not define 0% and 100%; most values in the screen are far below 50% and negative numbers occur (in some assays of this library far below -100).
Compounds were drawn at random from those tested, without regard to their results.

{"structure": "COCc1nc2c(o1)CN(C(=O)NCc1ccccc1)C2", "PfKRS1": 1.817, "ClpP1P2": 6.995}
{"structure": "Cc1cc(C)c2nc(CNC3CCCNC3=O)cc(O)c2c1", "stereo": "stereo unspecified", "PfKRS1": 25.32, "ClpP1P2": -15.39}
{"structure": "Cc1ncsc1CN1C[C@@H]2COC[C@]2(CNC(=O)c2ccccc2)C1", "PfKRS1": 6.526, "ClpP1P2": -0.788}
{"structure": "O=C(CCn1ccnn1)N1CCCC(n2cncn2)C1", "stereo": "stereo unspecified", "PfKRS1": 4.821, "ClpP1P2": 15.23}
{"structure": "CNc1cc(N2CCCC2CNCc2cnc(C)s2)ncn1", "stereo": "stereo unspecified", "PfKRS1": 0.1334, "ClpP1P2": -18.75}
{"structure": "Cn1cccc1-c1cc(C(=O)N2CCCC2C(F)(F)F)[nH]n1", "stereo": "stereo unspecified", "PfKRS1": 8.547, "ClpP1P2": 9.717}
{"structure": "CN(C)c1ncnc2c1CCN(c1ccccc1)CC2", "PfKRS1": 1.131, "ClpP1P2": -8.3}
{"structure": "CCOc1cccc2c1OCC(C(=O)NS(=O)(=O)c1ccc(Br)s1)=C2", "PfKRS1": -2.094, "ClpP1P2": -7.499}
{"structure": "CNC(=O)[C@H]1C[C@H]2OCC[C@H]2N(Cc2ccc(C)o2)C1", "PfKRS1": 7.18, "ClpP1P2": -26.05}
{"structure": "O=C(c1ccco1)N1CCc2onc(Cn3cccn3)c2C1", "PfKRS1": 4.63, "ClpP1P2": -3.531}
{"structure": "CC(=O)N1CCC(N2CC(Cc3nccc4ccn(C)c34)C2)CC1", "PfKRS1": 6.062, "ClpP1P2": -5.061}
{"structure": "Cc1cc(C)c(C#N)c(N2CCC(Cc3ccccc3)CC2)n1", "PfKRS1": 6.06, "ClpP1P2": -4.272}
{"structure": "CSc1cc2c(cc1NC(=O)NCC(C)(C)C(N)=O)OCCO2", "PfKRS1": 17.16, "ClpP1P2": 2.907}
{"structure": "Cc1nc(CC(=O)NCCN2CCC(c3ccccc3C)C2)cs1", "stereo": "stereo unspecified", "PfKRS1": 3.345, "ClpP1P2": -1.356}
{"structure": "O=C(c1cscn1)N1CCC2(CCN(Cc3nccs3)CC2)C1", "PfKRS1": 0.05484, "ClpP1P2": 9.033}
{"structure": "CCCn1ncnc1C(C)NC(=O)C1CCN(C(=O)C2CC2)CC1", "stereo": "stereo unspecified", "PfKRS1": 6.1, "ClpP1P2": -1.625}
{"structure": "c1cc(CNCC2CNc3ccnn3C2)cc(OC2CCCC2)n1", "stereo": "stereo unspecified", "PfKRS1": -0.3719, "ClpP1P2": 7.347}
{"structure": "Cc1ccsc1CN1CC[C@H]2O[C@H](C(=O)N3CCCO3)CC[C@H]21", "PfKRS1": 1.595, "ClpP1P2": -7.849}
{"structure": "O=C(Cc1cccc(Cl)c1)Nc1cnccc1SCCCO", "PfKRS1": -2.365, "ClpP1P2": 11.25}
{"structure": "O=C(NCCNc1ncccn1)C1CC(=O)N(C2CCCC2)C1", "stereo": "stereo unspecified", "PfKRS1": 1.419, "ClpP1P2": -15.16}
{"structure": "CCc1ccc(S(=O)(=O)N2Cc3c(CN(C)C)nn(C)c3C2)cc1", "PfKRS1": 2.571, "ClpP1P2": -7.011}
{"structure": "COc1cccc(C(=O)Oc2cc(=O)n3cccc(C)c3n2)c1", "PfKRS1": -2.275, "ClpP1P2": -6.963}
{"structure": "CN(Cc1cnccn1)C(=O)c1ccc(CSc2nnc[nH]2)o1", "PfKRS1": -0.358, "ClpP1P2": -10.11}

2 of the entries, repeated:

structure,PfKRS1,ClpP1P2
Cc1ccsc1CN1CC[C@H]2O[C@H](C(=O)N3CCCO3)CC[C@H]21,1.595%,-7.849%
CN(C)c1ncnc2c1CCN(c1ccccc1)CC2,1.131%,-8.3%